Data published in patent US20120269817A1.
These are yes or no findings as the source states them, for the method shown. Some entries that bind do so weakly or less than the wild type.

The chains behind the UniProt entries cited, without tags or fusion partners. Where a name states a change or a piece, a line headed by the entry shows the natural chain unless it says otherwise. Residues count along the entry.
UniProt O54819, residues 29-289: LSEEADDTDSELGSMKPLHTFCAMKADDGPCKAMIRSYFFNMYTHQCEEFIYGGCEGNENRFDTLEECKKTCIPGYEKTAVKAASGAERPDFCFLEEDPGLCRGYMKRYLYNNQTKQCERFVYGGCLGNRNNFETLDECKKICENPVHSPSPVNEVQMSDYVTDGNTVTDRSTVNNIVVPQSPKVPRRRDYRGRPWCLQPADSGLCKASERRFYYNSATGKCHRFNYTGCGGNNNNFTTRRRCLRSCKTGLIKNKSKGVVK
UniProt P10646: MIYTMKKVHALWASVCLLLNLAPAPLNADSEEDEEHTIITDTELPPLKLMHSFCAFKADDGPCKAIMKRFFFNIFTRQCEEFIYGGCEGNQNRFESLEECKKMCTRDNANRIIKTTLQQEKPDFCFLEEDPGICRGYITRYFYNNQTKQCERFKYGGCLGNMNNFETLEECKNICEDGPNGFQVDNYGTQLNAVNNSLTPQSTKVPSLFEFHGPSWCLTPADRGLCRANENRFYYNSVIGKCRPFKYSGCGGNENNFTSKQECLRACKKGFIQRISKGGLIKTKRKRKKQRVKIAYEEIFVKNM
human TFPI K1 + K2 + K3: residues 29-270 of P10646
human TFPI K1 + K2: residues 29-189 of P10646

Key:
[1] = molecular target: mouse tissue factor pathway inhibitor (TFPI) (mouse) (UniProt O54819); test: ELISA on coated mouse TFPI, titration of the IgG, fluorescence units
[2] = molecular target: human TFPI K1 + K2 (human) (UniProt P10646); test: Western blots and ELISA
[3] = molecular target: human TFPI K1 + K2 + K3 (human) (UniProt P10646); test: Western blots and ELISA

binding [1]: binds | binding [2]: binds | binding [3]: binds
B1: 2G6-IgG (antibody, V domains shown)
VH: QVQLQQSGPGLVKPSQTLSLTCAISGDSVSSSSAAWSWIRQSPGRGLEWLGIIYYRSKWYNDYAVSVKSRITINPDTSKNQFSLQLNSVTPEDTAVYYCARHSMVGFDVWGQGTLVTVSS
VL: DIVLTQSPATLSLSPGERATLSCRASQYVTSSYLAWYQQKPGQAPRLLIYGSSRATGVPARFSGSGSGTDFTLTISSLEPEDFATYYCQQYSSSPITFGQGTKVEIKR
